The list is a part of this screen's results and no random one: it is rich in T/C values a quarter to a half above the control, in often repeated tests (any T/C) and in doses without a T/C. Other doses and runs of a compound stand elsewhere. T/C is the treated group as % of the vehicle group. Some entries give survivors of the animals treated and no T/C: the source files T/C as zero there, which appears to mark a toxic dose or a test without result, not a measured value. Some doses without a T/C left all or most animals alive at the check, yet need not have been tolerated: the source hardly ever lists a survival T/C far under the control, and the zero likely stands for such cases as well. Survivors were counted at the toxicity check, usually on the fifth day, unless a day is given; later deaths do not show. Schedule codes are those of the source, taken here to give the interval after Q, in days (D) or hours (H), and the number of doses after X. For survival time, the PubChem record calls one and a half times the control and up active, and a quarter to a half above the control has no call in these data; cut-offs in other NCI protocols can differ. Some entries were tested several times; the values are given in rising order. Some T/C values carry the count of animals alive at the toxicity check (mostly the fifth day); without a count, all were alive then.
System: L1210 leukemia ip in BDF1 mice, survival T/C
Assay: NCI In Vivo Anticancer Drug Screen. Data for tumor model L1210 Leukemia (intraperitoneal) in B6D2F1 (BDF1) mice
Details: T/C endpoint: mean survival time, higher T/C = longer survival
[1] = dose: 100.0 mg/kg/injection, schedule: Q01DX009 (ip), vehicle: saline with Tween-80
[2] = dose: 200.0 mg/kg/injection, schedule: Q04DX003 (ip), vehicle: Klucel (hydroxypropylcellulose) (HPC)
[3] = dose: 400.0 mg/kg/injection, schedule: Q04DX003 (ip), vehicle: Klucel (hydroxypropylcellulose) (HPC)
[4] = dose: 400.0 mg/kg/injection, schedule: Q04DX003 (ip), vehicle: saline
[5] = dose: 200.0 mg/kg/injection, schedule: Q01DX001 (ip), vehicle: saline with Tween-80

OC(c1cccc(C(O)(C(F)(F)F)C(F)(F)F)c1)(C(F)(F)F)C(F)(F)F
survivor count (dose: 80.0 mg/kg/injection, schedule: Q01DX001 (ip), vehicle: saline): 3 of 6
survivor count (dose: 100.0 mg/kg/injection, schedule: Q01DX001 (ip), vehicle: saline): 0 of 4
survivor count (dose: 200.0 mg/kg/injection, schedule: Q01DX001 (ip), vehicle: saline): 0 of 4
survivor count (dose: 400.0 mg/kg/injection, schedule: Q01DX001 (ip), vehicle: saline): 0 of 4

C/C=C/CNc1ccc(C)cc1
T/C [1]: 140 % of control

CC(C)CC(CC(C)C)NCCO
survivor count (dose: 150.0 mg/kg/injection, schedule: Q01DX001 (ip), vehicle: acid diluted with saline): 2 of 6
survivor count (dose: 300.0 mg/kg/injection, schedule: Q01DX001 (ip), vehicle: acid diluted with saline): 0 of 6

NC(=O)NN=C1CCCCC1
survivor count (dose: 100.0 mg/kg/injection, schedule: Q04DX003 (ip), vehicle: Klucel (hydroxypropylcellulose) (HPC)): 2 of 6
survivor count (dose: 110.0 mg/kg/injection, schedule: Q01DX009 (ip), vehicle: Klucel (hydroxypropylcellulose) (HPC)): 0 of 6
survivor count (dose: 165.0 mg/kg/injection, schedule: Q01DX009 (ip), vehicle: Klucel (hydroxypropylcellulose) (HPC)): 0 of 6
survivor count [2]: 2 of 6
survivor count [3]: 6 of 6

[NH-]CC([NH-])=O.[NH-]CC([NH-])=O.[Ni]
survivor count (dose: 25.0 mg/kg/injection, schedule: Q01DX009 (ip), vehicle: water): 3 of 6
survivor count (dose: 100.0 mg/kg/injection, schedule: Q04DX003 (ip), vehicle: water): 2 of 6
survivor count (dose: 200.0 mg/kg/injection, schedule: Q04DX003 (ip), vehicle: water): 0 of 6
survivor count (dose: 400.0 mg/kg/injection, schedule: Q04DX003 (ip), vehicle: water): 0 of 6

O=C1O/C(=C/Br)C=C1Br
survivor count (dose: 50.0 mg/kg/injection, schedule: Q04DX003 (ip), vehicle: saline): 1 of 3
survivor count (dose: 100.0 mg/kg/injection, schedule: Q04DX003 (ip), vehicle: saline): 0 of 3
survivor count (dose: 200.0 mg/kg/injection, schedule: Q04DX003 (ip), vehicle: saline): 0 of 3
survivor count [4]: 0 of 3

CCOC(=O)N/N=C(/C)OCC
survivor count [4]: 5 of 6

O=C1OC2C3C=CC(CC3)C2O1 (stereo not drawn)
survivor count (dose: 60.0 mg/kg/injection, schedule: Q01DX001 (ip), vehicle: carboxymethylcellulose (CMC)): 2 of 6
survivor count (dose: 75.0 mg/kg/injection, schedule: Q01DX001 (ip), vehicle: carboxymethylcellulose (CMC)): 0 of 6
survivor count (dose: 150.0 mg/kg/injection, schedule: Q01DX001 (ip), vehicle: carboxymethylcellulose (CMC)): 0 of 6
survivor count (dose: 300.0 mg/kg/injection, schedule: Q01DX001 (ip), vehicle: carboxymethylcellulose (CMC)): 0 of 6

CC1S(=O)(=O)CC(NC(=O)N(CCCl)N=O)CS1(=O)=O (stereo not drawn)
T/C (dose: 2.4 mg/kg/injection, schedule: Q01DX001 (ip), vehicle: saline with Tween-80): 131 and 142 % of control
T/C (dose: 3.5 mg/kg/injection, schedule: Q01DX001 (ip), vehicle: saline with Tween-80): 130 % of control
survivor count (dose: 135.0 mg/kg/injection, schedule: Q01DX001 (ip), vehicle: saline with Tween-80): 1 of 10

COC(=O)c1cc([N+](=O)[O-])c(Br)s1
survivor count [2]: 2 of 6
survivor count [3]: 1 of 6

CC(=O)n1c(O)c(N=NC(=N)N[N+](=O)[O-])c2ccccc21
survivor count [1]: 5 of 6
T/C [5]: 140 % of control [5 of 6 alive]
T/C (dose: 200.0 mg/kg/injection, schedule: Q01DX009 (ip), vehicle: saline with Tween-80): 126 % of control [5 of 6 alive]
survivor count (dose: 400.0 mg/kg/injection, schedule: Q01DX009 (ip), vehicle: saline with Tween-80): 2 of 6

O=CNNc1ccc([N+](=O)[O-])cc1
survivor count (dose: 400.0 mg/kg/injection, schedule: Q01DX009 (ip), vehicle: Klucel (hydroxypropylcellulose) (HPC)): 1 of 6

CCCCCOS(=O)(=O)c1ccc(Cl)c([N+](=O)[O-])c1
survivor count (dose: 100.0 mg/kg/injection, schedule: Q04DX003 (ip), vehicle: saline with Tween-80): 3 of 6

CC(=O)/C(N=O)=C(/C)O
survivor count (dose: 100.0 mg/kg/injection, schedule: Q01DX001 (ip), vehicle: saline with Tween-80): 6 of 6
survivor count [5]: 6 of 6
